# PubChem BioAssay AID1224830 – NIAID – 2016
# Test: 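Host factors that control LPS-induced TNF expression in human macrophages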 (primary screen)
# Cells: human THP-1 monocytic leukaemia cells, TNF dual-luciferase reporter clone, PMA-differentiated to macrophage-like cells
# Knock-down reagent: siRNA pool against human genes, 50 nM
# Timing: LPS for 4 h, given about 3 days after siRNA transfection
# Conditions: bacterial LPS (TLR4 ligand), 10 ng/ml
# Read-out: 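Ratio of firefly to renilla light, scaled to the plate median and expressed as a robust z-score per replicate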
# Scale: TNF reporter robust z-score: higher = stronger TNF reporter response to LPS
# Call rule: 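a well is active when its z-score exceeds 2.8 or falls below -1.5; control wells carry no call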
# The whole screen tested about 18,000 reagents; this is a part drawn at random. About 2,900 of all reagents (16%) were called active. 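Calls are made per well; low scores hint the gene aids the LPS response, high scores that it dampens it.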 Repeated entries: four replicate wells of each siRNA pool.
target gene,TNF reporter robust z-score,activity call
DDX53,0.69,inactive
DDX53,0.84,inactive
DDX53,-0.11,inactive
DDX53,0.83,inactive
TENT5D,-1.41,inactive
TENT5D,-0.96,inactive
TENT5D,0.12,inactive
TENT5D,-1.19,inactive
PSME4,-0.69,inactive
PSME4,-0.17,inactive
PSME4,-0.66,inactive
PSME4,-0.04,inactive
MADCAM1,0.79,inactive
MADCAM1,1.24,inactive
MADCAM1,1.58,inactive
MADCAM1,-1.3,inactive
CSN2,1.35,inactive
CSN2,0.42,inactive
CSN2,-0.11,inactive
CSN2,-0.02,inactive
MAGEB1,1.38,inactive
MAGEB1,1.45,inactive
MAGEB1,1.64,inactive
MAGEB1,0.88,inactive
AVP,1.76,inactive
AVP,3.61,active
AVP,5.16,active
AVP,2.56,inactive
PHOX2A,-0.88,inactive
PHOX2A,0.75,inactive
PHOX2A,-0.42,inactive
PHOX2A,-0.63,inactive
EXOC3L2,-0.92,inactive
EXOC3L2,-0.95,inactive
EXOC3L2,-1.41,inactive
EXOC3L2,-0.8,inactive
TMEM11,0.66,inactive
TMEM11,-0.01,inactive
TMEM11,0.6,inactive
TMEM11,2.51,inactive
TERF2,2.63,inactive
TERF2,1.08,inactive
TERF2,1.83,inactive
TERF2,2.22,inactive
FAM81A,-0.13,inactive
FAM81A,1.19,inactive
FAM81A,0.08,inactive
FAM81A,-0.25,inactive
GAL3ST3,-0.79,inactive
GAL3ST3,-0.5,inactive
GAL3ST3,-0.1,inactive
GAL3ST3,0.11,inactive
HTR2C,-0.02,inactive
HTR2C,0.14,inactive
HTR2C,-0.04,inactive
HTR2C,-0.06,inactive
UBB,-2.02,active
UBB,-1.9,active
UBB,-0.94,inactive
UBB,-1.44,inactive
CACNA1C,-1.62,active
CACNA1C,-1.24,inactive
CACNA1C,-0.18,inactive
CACNA1C,-0.98,inactive
CRMA,-0.38,inactive
CRMA,0.68,inactive
CRMA,-0.75,inactive
CRMA,0.37,inactive
LUC7L3,0.79,inactive
LUC7L3,-0.76,inactive
LUC7L3,-0.01,inactive
LUC7L3,0.09,inactive
ZMYND15,0.09,inactive
ZMYND15,0.36,inactive
ZMYND15,1.2,inactive
ZMYND15,0.32,inactive
PARP4,2.85,active
PARP4,3.02,active
PARP4,1.92,inactive
PARP4,1.86,inactive
TRAPPC2,-0.63,inactive
TRAPPC2,-1.07,inactive
TRAPPC2,-1.01,inactive
TRAPPC2,-1.34,inactive
RASGEF1B,1.51,inactive
RASGEF1B,0.46,inactive
RASGEF1B,0.72,inactive
RASGEF1B,6.55,active
AIM2,1.32,inactive
AIM2,0.47,inactive
AIM2,1,inactive
AIM2,1.33,inactive
BUB1,0.41,inactive
BUB1,0.01,inactive
BUB1,0.67,inactive
BUB1,0.82,inactive
CLPP,-0.78,inactive
CLPP,0.37,inactive
CLPP,-1.04,inactive
CLPP,-0.99,inactive
RAB6D,-1.42,inactive
RAB6D,-1.32,inactive
RAB6D,-0.74,inactive
RAB6D,-1.25,inactive
CDH3,-0.72,inactive
CDH3,-0.48,inactive
CDH3,-0.1,inactive
CDH3,-0.39,inactive
DPY19L3,0.42,inactive
DPY19L3,-1.1,inactive
DPY19L3,-1.42,inactive
DPY19L3,-1.07,inactive
OR52M1,-0.93,inactive
OR52M1,-0.42,inactive
OR52M1,-0.99,inactive
OR52M1,0.11,inactive
RBFOX2,-0.45,inactive
RBFOX2,-0.38,inactive
RBFOX2,-0.54,inactive
RBFOX2,0.25,inactive
OR2D2,0.9,inactive
OR2D2,0.53,inactive
OR2D2,-0.18,inactive
OR2D2,0.7,inactive
IL15RA,-0.81,inactive
IL15RA,-0.22,inactive
IL15RA,-0.73,inactive
IL15RA,0.01,inactive
ZNF595,0.21,inactive
ZNF595,-0.05,inactive
ZNF595,0.84,inactive
ZNF595,-0.08,inactive
LSP1,-1.5,inactive
LSP1,-0.87,inactive
LSP1,-0.89,inactive
LSP1,-0.82,inactive
ZNF317,-0.6,inactive
ZNF317,0.12,inactive
ZNF317,-0.07,inactive
ZNF317,0.1,inactive

Records listed so far with an active call (8):
target gene,TNF reporter robust z-score,activity call
AVP,3.61,active
AVP,5.16,active
UBB,-2.02,active
UBB,-1.9,active
CACNA1C,-1.62,active
PARP4,2.85,active
PARP4,3.02,active
RASGEF1B,6.55,active
